Laboratory results taken from the supplement of paper PMC10849652.
This is one part of the list.

Amino acid sequences for entries named in this document (tags omitted). A change or cut given only in a name is not applied to a line headed by its entry.
UniProt Q92913: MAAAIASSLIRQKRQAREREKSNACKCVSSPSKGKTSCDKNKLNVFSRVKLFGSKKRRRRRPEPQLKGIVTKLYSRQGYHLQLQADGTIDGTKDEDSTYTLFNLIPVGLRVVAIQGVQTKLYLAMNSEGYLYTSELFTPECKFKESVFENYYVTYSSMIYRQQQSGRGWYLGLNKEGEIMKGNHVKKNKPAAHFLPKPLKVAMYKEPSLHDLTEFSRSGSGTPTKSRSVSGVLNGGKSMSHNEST
UniProt Q7L8L6: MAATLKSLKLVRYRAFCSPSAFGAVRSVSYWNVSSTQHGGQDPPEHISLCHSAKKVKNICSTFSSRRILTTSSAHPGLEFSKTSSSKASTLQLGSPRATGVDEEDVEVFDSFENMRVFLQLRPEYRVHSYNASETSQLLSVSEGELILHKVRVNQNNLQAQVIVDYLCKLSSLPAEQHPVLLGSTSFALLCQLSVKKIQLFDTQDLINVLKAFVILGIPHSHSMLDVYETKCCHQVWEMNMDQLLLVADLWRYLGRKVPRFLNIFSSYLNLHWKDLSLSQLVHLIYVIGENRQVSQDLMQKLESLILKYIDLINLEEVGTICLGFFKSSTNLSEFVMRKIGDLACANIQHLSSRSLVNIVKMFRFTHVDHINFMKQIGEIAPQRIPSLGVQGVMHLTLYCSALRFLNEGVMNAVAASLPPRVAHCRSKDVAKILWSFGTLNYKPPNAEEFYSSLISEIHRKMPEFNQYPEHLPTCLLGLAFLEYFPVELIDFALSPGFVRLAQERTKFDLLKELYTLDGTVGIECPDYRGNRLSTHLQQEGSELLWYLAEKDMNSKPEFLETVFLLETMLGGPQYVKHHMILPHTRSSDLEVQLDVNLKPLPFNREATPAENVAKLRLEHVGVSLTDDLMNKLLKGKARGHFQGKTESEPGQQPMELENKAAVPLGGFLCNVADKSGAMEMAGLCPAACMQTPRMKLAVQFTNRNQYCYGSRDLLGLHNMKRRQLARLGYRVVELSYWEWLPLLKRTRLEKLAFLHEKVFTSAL
UniProt Q9Y285: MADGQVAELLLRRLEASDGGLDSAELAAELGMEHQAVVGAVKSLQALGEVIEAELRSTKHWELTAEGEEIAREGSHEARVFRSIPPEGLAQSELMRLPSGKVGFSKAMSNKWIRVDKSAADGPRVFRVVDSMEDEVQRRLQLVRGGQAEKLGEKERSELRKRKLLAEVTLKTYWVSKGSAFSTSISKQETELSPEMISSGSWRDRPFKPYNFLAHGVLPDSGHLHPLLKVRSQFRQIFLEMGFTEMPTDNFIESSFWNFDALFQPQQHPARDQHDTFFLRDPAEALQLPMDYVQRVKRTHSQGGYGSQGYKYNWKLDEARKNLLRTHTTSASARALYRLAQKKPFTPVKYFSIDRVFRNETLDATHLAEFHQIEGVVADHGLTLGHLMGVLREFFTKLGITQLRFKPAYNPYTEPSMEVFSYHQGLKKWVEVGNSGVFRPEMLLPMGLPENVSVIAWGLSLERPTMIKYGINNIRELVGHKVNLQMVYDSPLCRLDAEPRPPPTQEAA
UniProt Q9Y3D6: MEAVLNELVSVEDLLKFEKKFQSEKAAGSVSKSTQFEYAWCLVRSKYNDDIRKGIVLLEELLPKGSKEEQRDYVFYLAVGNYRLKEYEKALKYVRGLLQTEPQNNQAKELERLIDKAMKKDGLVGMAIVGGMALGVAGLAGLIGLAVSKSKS
UniProt Q8WVX9: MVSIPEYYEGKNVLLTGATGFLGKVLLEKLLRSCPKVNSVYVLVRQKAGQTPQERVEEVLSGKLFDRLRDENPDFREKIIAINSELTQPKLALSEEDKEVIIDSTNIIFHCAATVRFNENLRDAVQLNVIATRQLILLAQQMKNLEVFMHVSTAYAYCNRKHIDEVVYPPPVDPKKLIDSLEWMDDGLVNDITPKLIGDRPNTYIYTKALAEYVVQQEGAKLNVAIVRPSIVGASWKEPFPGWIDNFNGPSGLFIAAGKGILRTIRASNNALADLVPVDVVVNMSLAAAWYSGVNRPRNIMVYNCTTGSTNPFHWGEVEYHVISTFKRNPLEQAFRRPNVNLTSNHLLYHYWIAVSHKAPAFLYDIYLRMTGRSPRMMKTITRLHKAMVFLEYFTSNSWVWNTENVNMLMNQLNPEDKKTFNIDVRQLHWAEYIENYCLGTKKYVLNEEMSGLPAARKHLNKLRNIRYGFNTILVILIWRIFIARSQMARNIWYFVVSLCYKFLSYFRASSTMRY
UniProt Q5T1M5: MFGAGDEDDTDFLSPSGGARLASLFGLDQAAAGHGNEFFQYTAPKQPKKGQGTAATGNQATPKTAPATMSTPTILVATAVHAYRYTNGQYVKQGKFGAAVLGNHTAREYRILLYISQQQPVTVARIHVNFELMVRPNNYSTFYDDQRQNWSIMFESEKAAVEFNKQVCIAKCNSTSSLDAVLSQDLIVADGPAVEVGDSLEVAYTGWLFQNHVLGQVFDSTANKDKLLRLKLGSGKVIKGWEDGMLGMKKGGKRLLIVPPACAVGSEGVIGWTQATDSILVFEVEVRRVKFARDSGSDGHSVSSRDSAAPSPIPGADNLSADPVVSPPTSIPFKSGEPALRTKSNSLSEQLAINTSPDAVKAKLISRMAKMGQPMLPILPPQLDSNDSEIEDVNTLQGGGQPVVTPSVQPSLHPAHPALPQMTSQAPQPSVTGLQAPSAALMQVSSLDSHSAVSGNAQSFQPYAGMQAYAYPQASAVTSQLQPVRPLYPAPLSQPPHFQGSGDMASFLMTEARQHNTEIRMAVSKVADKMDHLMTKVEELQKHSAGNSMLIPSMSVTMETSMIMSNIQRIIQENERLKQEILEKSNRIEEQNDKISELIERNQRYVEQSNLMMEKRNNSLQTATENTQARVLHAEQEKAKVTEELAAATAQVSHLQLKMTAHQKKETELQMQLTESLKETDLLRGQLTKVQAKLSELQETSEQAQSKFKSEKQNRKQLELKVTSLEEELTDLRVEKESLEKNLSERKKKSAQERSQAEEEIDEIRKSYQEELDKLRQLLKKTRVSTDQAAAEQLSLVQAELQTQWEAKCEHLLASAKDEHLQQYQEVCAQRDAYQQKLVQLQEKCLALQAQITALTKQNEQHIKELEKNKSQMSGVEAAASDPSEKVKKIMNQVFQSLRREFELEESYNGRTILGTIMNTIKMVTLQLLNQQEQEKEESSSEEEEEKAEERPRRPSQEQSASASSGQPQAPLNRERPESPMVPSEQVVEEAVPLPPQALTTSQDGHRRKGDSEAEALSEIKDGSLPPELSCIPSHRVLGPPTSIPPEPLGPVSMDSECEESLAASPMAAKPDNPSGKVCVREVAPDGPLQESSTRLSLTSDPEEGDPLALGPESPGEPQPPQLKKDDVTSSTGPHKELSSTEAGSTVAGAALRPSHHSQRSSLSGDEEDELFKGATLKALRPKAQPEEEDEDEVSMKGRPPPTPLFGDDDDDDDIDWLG
UniProt Q14254: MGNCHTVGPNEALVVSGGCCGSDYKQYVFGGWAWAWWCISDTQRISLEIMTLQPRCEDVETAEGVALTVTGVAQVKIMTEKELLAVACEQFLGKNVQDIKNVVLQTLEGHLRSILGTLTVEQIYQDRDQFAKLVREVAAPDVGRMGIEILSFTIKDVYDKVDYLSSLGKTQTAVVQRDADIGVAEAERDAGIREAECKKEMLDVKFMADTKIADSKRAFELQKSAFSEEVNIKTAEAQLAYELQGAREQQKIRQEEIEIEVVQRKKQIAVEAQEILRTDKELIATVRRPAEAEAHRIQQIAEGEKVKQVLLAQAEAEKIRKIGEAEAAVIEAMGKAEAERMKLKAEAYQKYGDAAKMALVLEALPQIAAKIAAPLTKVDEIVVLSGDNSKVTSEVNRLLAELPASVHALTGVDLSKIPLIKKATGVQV
UniProt Q8NB91: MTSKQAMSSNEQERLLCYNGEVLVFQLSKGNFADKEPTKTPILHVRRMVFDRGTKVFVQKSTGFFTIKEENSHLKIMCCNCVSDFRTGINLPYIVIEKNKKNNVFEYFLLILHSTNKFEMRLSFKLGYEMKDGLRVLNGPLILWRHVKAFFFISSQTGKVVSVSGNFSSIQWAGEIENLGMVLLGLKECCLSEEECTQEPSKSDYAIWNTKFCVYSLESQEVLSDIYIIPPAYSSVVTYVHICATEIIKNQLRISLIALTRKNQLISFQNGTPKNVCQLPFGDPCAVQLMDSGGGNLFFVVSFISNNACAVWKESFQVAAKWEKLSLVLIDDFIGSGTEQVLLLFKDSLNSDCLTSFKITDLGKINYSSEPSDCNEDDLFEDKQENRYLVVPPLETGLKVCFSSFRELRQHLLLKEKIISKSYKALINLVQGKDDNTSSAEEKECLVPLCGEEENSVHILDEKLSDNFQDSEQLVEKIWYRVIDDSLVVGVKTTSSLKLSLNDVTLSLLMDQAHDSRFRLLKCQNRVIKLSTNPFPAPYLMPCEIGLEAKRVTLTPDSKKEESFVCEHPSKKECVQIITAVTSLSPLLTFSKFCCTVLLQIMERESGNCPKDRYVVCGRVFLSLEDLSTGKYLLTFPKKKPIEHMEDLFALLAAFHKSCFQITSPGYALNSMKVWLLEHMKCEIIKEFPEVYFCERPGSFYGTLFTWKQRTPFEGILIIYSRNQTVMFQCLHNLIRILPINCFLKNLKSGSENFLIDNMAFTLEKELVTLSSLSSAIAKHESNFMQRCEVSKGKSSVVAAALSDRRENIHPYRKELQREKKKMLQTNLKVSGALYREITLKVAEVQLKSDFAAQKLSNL
UniProt Q9HA64: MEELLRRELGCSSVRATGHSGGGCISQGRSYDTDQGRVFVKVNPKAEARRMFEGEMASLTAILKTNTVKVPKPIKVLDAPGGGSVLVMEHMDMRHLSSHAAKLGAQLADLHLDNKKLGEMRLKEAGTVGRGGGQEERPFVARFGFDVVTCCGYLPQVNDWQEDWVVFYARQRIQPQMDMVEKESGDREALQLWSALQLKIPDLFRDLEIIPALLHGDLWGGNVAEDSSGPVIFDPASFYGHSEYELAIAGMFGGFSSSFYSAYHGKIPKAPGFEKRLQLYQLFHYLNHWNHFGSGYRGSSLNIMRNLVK
UniProt Q6ZV73: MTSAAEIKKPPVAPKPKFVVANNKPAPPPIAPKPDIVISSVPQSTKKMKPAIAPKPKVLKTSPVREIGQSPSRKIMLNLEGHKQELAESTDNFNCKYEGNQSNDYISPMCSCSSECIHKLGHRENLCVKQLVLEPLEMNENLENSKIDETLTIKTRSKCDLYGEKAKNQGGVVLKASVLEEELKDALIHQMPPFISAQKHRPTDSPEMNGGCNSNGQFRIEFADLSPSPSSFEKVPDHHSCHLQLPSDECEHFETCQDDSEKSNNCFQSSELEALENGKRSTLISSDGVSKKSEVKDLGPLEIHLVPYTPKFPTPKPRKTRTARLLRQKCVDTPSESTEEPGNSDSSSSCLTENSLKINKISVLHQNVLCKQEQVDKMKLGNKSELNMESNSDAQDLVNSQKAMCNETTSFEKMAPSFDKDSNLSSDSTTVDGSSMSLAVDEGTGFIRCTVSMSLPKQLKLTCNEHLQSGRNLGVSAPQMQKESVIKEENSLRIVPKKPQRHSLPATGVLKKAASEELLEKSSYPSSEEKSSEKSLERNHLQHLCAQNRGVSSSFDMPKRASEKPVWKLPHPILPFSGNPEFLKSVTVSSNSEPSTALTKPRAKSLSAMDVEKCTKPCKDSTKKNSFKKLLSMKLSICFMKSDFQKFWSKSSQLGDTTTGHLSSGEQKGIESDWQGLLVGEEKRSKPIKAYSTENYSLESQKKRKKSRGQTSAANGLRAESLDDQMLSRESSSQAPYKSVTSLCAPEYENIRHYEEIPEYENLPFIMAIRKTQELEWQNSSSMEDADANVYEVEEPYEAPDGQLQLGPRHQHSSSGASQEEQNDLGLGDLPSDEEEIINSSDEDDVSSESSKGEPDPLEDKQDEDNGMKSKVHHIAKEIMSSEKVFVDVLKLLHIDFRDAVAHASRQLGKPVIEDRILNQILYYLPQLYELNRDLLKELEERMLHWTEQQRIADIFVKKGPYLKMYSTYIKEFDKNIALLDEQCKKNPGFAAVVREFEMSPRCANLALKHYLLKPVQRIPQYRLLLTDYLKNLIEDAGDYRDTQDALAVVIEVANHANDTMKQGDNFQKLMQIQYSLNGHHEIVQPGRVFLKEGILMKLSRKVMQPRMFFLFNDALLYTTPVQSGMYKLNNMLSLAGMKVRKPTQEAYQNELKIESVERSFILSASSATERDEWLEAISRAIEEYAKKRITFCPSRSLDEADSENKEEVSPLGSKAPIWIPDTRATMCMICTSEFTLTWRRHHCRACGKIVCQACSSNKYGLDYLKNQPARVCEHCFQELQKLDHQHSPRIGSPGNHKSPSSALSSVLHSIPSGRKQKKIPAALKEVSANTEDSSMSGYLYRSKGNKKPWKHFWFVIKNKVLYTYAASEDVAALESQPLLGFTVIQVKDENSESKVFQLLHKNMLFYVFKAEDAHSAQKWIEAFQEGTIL

Columns and labels:
Experiment in all cases: log2 fold change, soluble protein after heating vs DMSO (PISA); higher = thermal stabilisation; K562 lysate, 10 uM; active = over 0.2 and 3.5 SD of the protein, either way, in both replicates (recomputed)
[1] = compound: CS(=O)(=O)CCNCc1ccc(-c2ccc3ncnc(Nc4ccc(OCc5cccc(F)c5)c(Cl)c4)c3c2)o1 [lapatinib]
How it was run: (§1)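 Following dounce homogenisation of K562 pellets in PBS pH 7.4 with 1 mM MgCl2, crude extract at 1 mg/mL protein was incubated for 30 min with 10 μM compound. Aliquots were then heated for 3 min over 48°C-58°C and pooled, NP-40 was added to 0.5% at 4°C, and soluble protein was recovered as the supernatant at 21,000xg for 90 min. Channel-sum-equalised TMTpro 16plex LC-MS/MS quantified this protein. Each value, from duplicates, is a log-two fold change in thermal stability relative to solvent controls.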

[2] = compound: CS(=O)(=O)N1CCN(Cc2cc3nc(-c4cccc5[nH]ncc45)nc(N4CCOCC4)c3s2)CC1 [pictilisib]
How it was run: as §1

[3] = compound: C[C@@H](Oc1cc(-c2cnn(C3CCNCC3)c2)cnc1N)c1c(Cl)ccc(F)c1Cl [crizotinib]
How it was run: as §1

[4] = compound: C[C@H](C1=CC=C(C=C1)C(=O)NC2=C3C=CNC3=NC=C2)N
How it was run: as §1

[5] = compound: C[C@H](Nc1ncnc2nc[nH]c12)c1cc2cccc(Cl)c2c(=O)n1-c1ccccc1 [duvelisib]
How it was run: as §1

[6] = compound: Cc1cc(Nc2cc(CN3CCOCC3)c3nc(C)c(Cc4ccc(Cl)cc4F)n3n2)n[nH]1 [gandotinib]
How it was run: as §1

[7] = compound: Cc1cc(Nc2cc(N3CCN(C)CC3)nc(Sc3ccc(NC(=O)C4CC4)cc3)n2)n[nH]1 [tozasertib]
How it was run: as §1

[8] = compound: Cc1ccc(-n2nc(C(C)(C)C)cc2NC(=O)Nc2ccc(OCCN3CCOCC3)c3ccccc23)cc1 [doramapimod]
How it was run: as §1

[9] = compound: Cc1ccc(NC(=O)c2ccc(CN3CC[C@H](N(C)C)C3)c(C(F)(F)F)c2)cc1Nc1nccc(-c2cncnc2)n1 [bafetinib]
How it was run: as §1

[10] = compound: Cc1cccc(CC(=O)N2CCc3c2ccc(-c2cn(C)c4ncnc(N)c24)c3F)n1
How it was run: as §1

[11] = compound: Cc1cn(-c2cc(NC(=O)c3ccc(C)c(Nc4nccc(-c5cccnc5)n4)c3)cc(C(F)(F)F)c2)cn1 [nilotinib]
How it was run: as §1

[12] = compound: Cc1nc(Nc2n[nH]c3c2CN(C(=O)N[C@H](CN(C)C)c2ccccc2)C3(C)C)c2sccc2n1
How it was run: as §1

[13] = compound: Cc1nc(Nc2ncc(C(=O)Nc3c(C)cccc3Cl)s2)cc(N2CCN(CCO)CC2)n1 [dasatinib]
How it was run: as §1

[14] = compound: Cc1ncc(-c2ccnc(Nc3ccc(S(C)(=O)=O)cc3)n2)n1C(C)C
How it was run: as §1

[15] = compound: Cn1cc(-c2ccc3c(c2)CCN3C(=O)Cc2cccc(C(F)(F)F)c2)c2c(N)ncnc21
How it was run: as §1

[16] = compound: Cn1cc(CNCC2CCN(c3ncc(C(=O)NO)cn3)CC2)c2ccccc21 [quisinostat]
How it was run: as §1

[17] = compound: Cn1cncc1[C@@](N)(c1ccc(Cl)cc1)c1ccc2c(c1)c(-c1cccc(Cl)c1)cc(=O)n2C [tipifarnib]
How it was run: as §1

[18] = compound: NC(=O)Nc1cc(-c2cccc(F)c2)sc1C(=O)N[C@H]1CCCNC1
How it was run: as §1

[19] = compound: NC(=O)c1cnc(N[C@@H]2CCCC[C@@H]2N)nc1Nc1cccc(-n2nccn2)c1
How it was run: as §1

[20] = compound: NC1(c2ccc(-c3nc4ccn5c(=O)[nH]nc5c4cc3-c3ccccc3)cc2)CCC1
How it was run: as §1

Measured: log2 fold change

FGF13 isoform 3 (UniProt Q92913)
inactive: [1] -0.013 | [2] 0.008 | [3] 0.049 | [4] -0.037 | [5] 0.012 | [6] 0.062 | [7] 0.026 | [8] -0.009 | [9] 0.028 | [10] -0.159 | [11] 0.008 | [12] -0.08 | [13] 0.038 | [14] 0.028 | [15] -0.015 | [16] -0.004 | [17] 0.013 | [18] -0.001 | [19] 0.043 | [20] -0.061

FAM98A (UniProt Q8NCA5)
inactive: [1] 0.001 | [2] -0.024 | [3] 0.007 | [4] 0.074 | [5] -0.024 | [6] -0.059 | [7] 0.023 | [8] -0.015 | [9] 0.012 | [10] 0 | [11] -0.045 | [12] 0.034 | [13] -0.034 | [14] 0.018 | [15] -0.022 | [16] -0.042 | [17] 0.009 | [18] -0.004 | [19] -0.028 | [20] -0.014

FERMT2 isoform 3 (UniProt Q96AC1)
inactive: [1] 0.023 | [2] -0.08 | [3] -0.011 | [4] -0.007 | [5] -0.054 | [6] 0.073 | [7] 0.033 | [8] -0.003 | [9] 0.029 | [10] 0.001 | [11] 0.124 | [12] -0.044 | [13] 0.118 | [14] 0.085 | [15] -0.005 | [16] -0.034 | [17] 0.085 | [18] 0.005 | [19] 0.02 | [20] 0.031

FASTKD5 (UniProt Q7L8L6)
inactive: [1] -0.025 | [2] 0.085 | [3] -0.075 | [4] 0.089 | [5] -0.042 | [6] -0.193 | [7] 0.056 | [8] 0.036 | [9] 0.169 | [10] -0.056 | [11] -0.072 | [12] 0.032 | [13] -0.006 | [14] 0.113 | [15] -0.027 | [16] -0.053 | [17] 0.003 | [18] 0.004 | [19] 0.054 | [20] 0.013

FLNC (UniProt Q14315)
inactive: [1] -0.009 | [2] -0.011 | [3] 0.013 | [4] -0.089 | [5] -0.011 | [6] 0.051 | [7] -0.033 | [8] -0.017 | [9] 0.026 | [10] 0.022 | [11] 0.006 | [12] 0.005 | [13] 0.007 | [14] 0.006 | [15] -0.034 | [16] 0.003 | [17] 0.009 | [18] -0.019 | [19] -0.017 | [20] 0.01

FARSA (UniProt Q9Y285)
inactive: [1] -0.028 | [2] 0.012 | [3] -0.05 | [4] -0.003 | [5] 0.056 | [6] 0.039 | [7] -0.063 | [8] 0 | [9] -0.075 | [10] -0.047 | [11] -0.006 | [12] 0.017 | [13] -0.03 | [14] -0.003 | [15] 0.001 | [16] -0.037 | [17] 0.003 | [18] 0.009 | [19] -0.015 | [20] -0.056

FASN (UniProt P49327)
inactive: [1] -0.008 | [2] 0.003 | [3] -0.013 | [4] -0.02 | [5] -0.007 | [6] -0.019 | [7] 0.025 | [8] 0.025 | [9] 0 | [10] 0.033 | [11] 0.009 | [12] -0.005 | [13] -0.022 | [14] -0.007 | [15] 0.013 | [16] -0.004 | [17] 0.01 | [18] 0.019 | [19] -0.002 | [20] 0.007

FIS1 (UniProt Q9Y3D6)
inactive: [1] 0.057 | [2] -0.026 | [3] 0.034 | [4] -0.017 | [5] 0.027 | [6] 0.164 | [7] -0.024 | [8] 0.107 | [9] -0.015 | [10] -0.017 | [11] 0.018 | [12] 0.037 | [13] 0.042 | [14] -0.011 | [15] -0.062 | [16] -0.043 | [17] -0.019 | [18] -0.051 | [19] -0.057 | [20] 0.001

FAR1 (UniProt Q8WVX9)
inactive: [1] 0.06 | [2] 0.012 | [3] -0.112 | [4] -0.053 | [5] 0.111 | [6] 0.035 | [7] -0.007 | [8] 0.041 | [9] -0.136 | [10] 0.168 | [11] 0.004 | [12] -0.045 | [13] -0.131 | [14] 0.149 | [15] 0.016 | [16] 0.03 | [17] -0.041 | [18] 0.002 | [19] 0.029 | [20] -0.118

FKBP15 (UniProt Q5T1M5)
inactive: [1] 0.008 | [2] -0.028 | [3] -0.002 | [4] -0.014 | [5] 0.005 | [6] -0.024 | [7] -0.009 | [8] -0.004 | [9] -0.052 | [10] 0.024 | [11] -0.01 | [12] 0.001 | [13] -0.039 | [14] -0.021 | [15] 0 | [16] 0.003 | [17] -0.067 | [18] 0.007 | [19] 0.015 | [20] -0.033

FNTB (UniProt P49356)
inactive: [1] 0.027 | [2] -0.052 | [3] 0.032 | [4] -0.047 | [5] 0.143 | [6] 0.055 | [7] -0.069 | [8] -0.053 | [9] -0.013 | [10] 0.015 | [11] -0.005 | [12] 0.016 | [13] 0.018 | [14] -0.04 | [15] -0.022 | [16] -0.002 | [18] 0.003 | [19] -0.011 | [20] -0.027
active: [17] 0.239

FLOT2 (UniProt Q14254)
inactive: [1] -0.022 | [2] 0.012 | [3] 0.013 | [4] -0.018 | [5] 0.007 | [6] -0.009 | [7] 0.004 | [8] -0.003 | [9] 0.01 | [10] 0.01 | [11] 0.04 | [12] -0.054 | [13] -0.001 | [14] 0.032 | [15] 0.009 | [16] 0.02 | [17] 0.003 | [18] 0.014 | [19] 0.025 | [20] 0.007

FEM1B (UniProt Q9UK73)
inactive: [1] -0.144 | [2] 0.072 | [3] -0.041 | [4] -0.203 | [5] 0.003 | [6] 0.066 | [7] -0.038 | [8] 0.023 | [9] -0.214 | [10] 0.122 | [11] 0.004 | [12] 0.014 | [13] -0.007 | [14] -0.053 | [15] 0.018 | [16] -0.113 | [17] -0.083 | [18] 0.002 | [19] 0.033 | [20] 0.002

FANCB (UniProt Q8NB91)
inactive: [1] -0.04 | [2] -0.015 | [3] -0.148 | [4] -0.099 | [5] -0.046 | [6] 0.035 | [7] -0.009 | [8] 0.111 | [9] -0.008 | [10] 0.085 | [11] 0.016 | [12] -0.008 | [13] -0.082 | [14] -0.015 | [15] 0.001 | [16] -0.078 | [17] -0.077 | [18] -0.132 | [19] -0.009 | [20] 0.049

Quoted at random: two records from the list
FKBP15 (UniProt Q5T1M5)
inactive: [1] 0.008 | [2] -0.028 | [3] -0.002 | [4] -0.014 | [5] 0.005 | [6] -0.024 | [7] -0.009 | [8] -0.004 | [9] -0.052 | [10] 0.024 | [11] -0.01 | [12] 0.001 | [13] -0.039 | [14] -0.021 | [15] 0 | [16] 0.003 | [17] -0.067 | [18] 0.007 | [19] 0.015 | [20] -0.033

FEM1B (UniProt Q9UK73)
inactive: [1] -0.144 | [2] 0.072 | [3] -0.041 | [4] -0.203 | [5] 0.003 | [6] 0.066 | [7] -0.038 | [8] 0.023 | [9] -0.214 | [10] 0.122 | [11] 0.004 | [12] 0.014 | [13] -0.007 | [14] -0.053 | [15] 0.018 | [16] -0.113 | [17] -0.083 | [18] 0.002 | [19] 0.033 | [20] 0.002

Additional results.

FN3KRP (UniProt Q9HA64)
inactive: [1] -0.017 | [2] -0.048 | [3] 0 | [4] 0.011 | [5] 0.006 | [6] 0.002 | [7] -0.014 | [8] 0.014 | [9] 0.005 | [10] 0.006 | [11] -0.021 | [12] 0.014 | [13] -0.031 | [14] 0.06 | [15] -0.002 | [16] -0.063 | [17] 0.019 | [18] 0.016 | [19] -0.028 | [20] 0.008

FGD6 (UniProt Q6ZV73)
inactive: [1] 0.673 | [2] 0.468 | [3] -0.108 | [4] 0.427 | [5] 0.044 | [6] 0.448 | [7] 0 | [8] -0.119 | [9] 0.254 | [10] 0.142 | [11] -0.004 | [12] -0.169 | [13] 0.176 | [14] 0.107 | [15] 0.11 | [16] -0.105 | [17] -0.554 | [18] 0.064 | [19] 0.396 | [20] -0.061
